Data: PMC10745484
No constants are given. Whether binding was seen depends on the method and setting.

Sequences of proteins named here, by UniProt entry; tags and fusion partners are left off. Residues count along the entry.
UniProt P15502, residues 27-786: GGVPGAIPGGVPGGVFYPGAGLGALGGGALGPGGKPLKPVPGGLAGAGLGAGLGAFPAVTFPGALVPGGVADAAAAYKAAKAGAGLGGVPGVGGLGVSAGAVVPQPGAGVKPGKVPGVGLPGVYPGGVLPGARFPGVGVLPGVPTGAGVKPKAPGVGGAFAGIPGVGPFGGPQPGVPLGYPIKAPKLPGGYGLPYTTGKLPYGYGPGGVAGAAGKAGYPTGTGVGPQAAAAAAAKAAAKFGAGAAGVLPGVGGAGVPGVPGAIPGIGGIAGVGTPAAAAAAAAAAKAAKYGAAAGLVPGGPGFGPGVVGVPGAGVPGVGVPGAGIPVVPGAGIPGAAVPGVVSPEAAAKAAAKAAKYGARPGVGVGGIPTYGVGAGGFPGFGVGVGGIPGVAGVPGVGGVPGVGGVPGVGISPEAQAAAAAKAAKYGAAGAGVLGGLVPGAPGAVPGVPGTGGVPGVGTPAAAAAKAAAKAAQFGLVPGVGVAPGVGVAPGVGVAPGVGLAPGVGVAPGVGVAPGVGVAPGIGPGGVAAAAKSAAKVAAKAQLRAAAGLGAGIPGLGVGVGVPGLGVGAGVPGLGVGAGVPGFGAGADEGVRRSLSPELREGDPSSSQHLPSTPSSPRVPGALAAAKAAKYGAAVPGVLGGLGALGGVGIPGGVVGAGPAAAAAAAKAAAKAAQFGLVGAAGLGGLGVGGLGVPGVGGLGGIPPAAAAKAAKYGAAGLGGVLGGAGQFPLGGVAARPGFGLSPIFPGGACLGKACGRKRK
UniProt P02769, residues 25-607: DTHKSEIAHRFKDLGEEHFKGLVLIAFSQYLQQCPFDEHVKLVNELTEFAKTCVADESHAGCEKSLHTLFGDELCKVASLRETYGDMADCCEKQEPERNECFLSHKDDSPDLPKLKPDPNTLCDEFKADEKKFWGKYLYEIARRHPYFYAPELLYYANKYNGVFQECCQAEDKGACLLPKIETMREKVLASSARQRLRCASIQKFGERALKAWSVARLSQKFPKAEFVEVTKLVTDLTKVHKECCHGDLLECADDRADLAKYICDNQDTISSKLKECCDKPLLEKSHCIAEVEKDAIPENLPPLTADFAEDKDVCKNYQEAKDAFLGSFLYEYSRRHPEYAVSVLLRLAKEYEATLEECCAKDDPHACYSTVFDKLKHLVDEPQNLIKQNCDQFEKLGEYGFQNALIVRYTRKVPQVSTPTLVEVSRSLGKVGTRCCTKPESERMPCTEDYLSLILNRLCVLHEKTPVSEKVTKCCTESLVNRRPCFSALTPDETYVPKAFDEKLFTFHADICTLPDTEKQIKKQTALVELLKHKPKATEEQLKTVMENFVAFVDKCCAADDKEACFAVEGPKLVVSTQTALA

Experiments:
[1] = molecular target: elastin from human lungs (human) (UniProt P15502); experiment: ELISA; host proteins or BSA coated at 1 µg/well (coating buffer pH 9.6, overnight 4 °C), blocked with 1% skim milk in PBST; 1 µg of recombinant protein added, 1 h at 37 °C; bound recombinant protein detected with peptide antiserum; for rSufC on plasminogen also with EACA added; both purified
[2] = molecular target: bovine serum albumin (BSA) (bovine) (UniProt P02769); experiment: as above
[3] = molecular target: recombinant Fe-S cluster assembly ATP-binding protein (SufC) (Streptococcus pneumoniae strain D39); experiment: SPR; Biacore X100; rSufC immobilised on a CM5 chip (1000 RU); plasminogen or BSA flowed at 6.25 to 100 nM, 25 °C, 100 mM HEPES pH 7.4, 150 mM NaCl, 3 mM EDTA, 0.005% surfactant P20; apparent constants; both purified

Substance	binding [1]	binding [2]	binding [3]
recombinant Fe-S cluster assembly ATP-binding protein (SufC) (from UniProt A0A0H2ZRV3 2-256)	no binding (tested: 1 µg per well)	no binding (tested: 1 µg per well)	–
bovine serum albumin (BSA) (from UniProt P02769 25-607)	–	–	no binding (tested: 6.25 to 100 nM)
